The values below come from PMC11994786.

Sequences of proteins named here, by UniProt entry; tags and fusion partners are left off.
UniProt P69566: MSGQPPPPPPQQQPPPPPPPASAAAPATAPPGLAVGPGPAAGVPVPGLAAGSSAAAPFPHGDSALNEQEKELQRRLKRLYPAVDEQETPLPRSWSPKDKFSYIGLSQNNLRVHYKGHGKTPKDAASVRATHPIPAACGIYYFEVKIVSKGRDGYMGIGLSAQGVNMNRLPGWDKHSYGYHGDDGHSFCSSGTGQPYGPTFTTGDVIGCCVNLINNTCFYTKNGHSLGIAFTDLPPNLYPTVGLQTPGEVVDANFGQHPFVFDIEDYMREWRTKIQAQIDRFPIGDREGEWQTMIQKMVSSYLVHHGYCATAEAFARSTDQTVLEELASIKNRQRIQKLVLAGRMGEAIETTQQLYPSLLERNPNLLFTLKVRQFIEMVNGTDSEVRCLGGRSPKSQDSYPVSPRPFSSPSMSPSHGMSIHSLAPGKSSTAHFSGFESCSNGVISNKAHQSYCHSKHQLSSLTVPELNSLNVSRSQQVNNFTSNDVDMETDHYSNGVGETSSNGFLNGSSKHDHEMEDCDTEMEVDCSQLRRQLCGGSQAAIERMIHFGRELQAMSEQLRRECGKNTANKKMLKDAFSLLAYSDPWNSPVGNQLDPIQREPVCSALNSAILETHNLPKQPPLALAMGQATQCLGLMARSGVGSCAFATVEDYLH

The test has as its target RanBP9-3xHA (Ran Binding Protein 9 fused to three copies of the HA tag) (mouse) (UniProt P69566). Description: affinity purification with mass spectrometry; anti-HA magnetic beads on 1 mg pre-cleared whole lung lysate of LysMBP9X mice, overnight at 4 °C, on-bead trypsin digestion, LC-MS/MS; hits significant (p ≤ 0.05) against HA-IP from WT mice and Ig-IPs.

Results are given in words; binding and its absence hold for the method and conditions named. In cells and extracts the contact can be indirect. These calls come from enrichment with a bait or labelling near it, and not all partners need be listed.

B1: Erlin1 (protein, UniProt Q91X78 1-348)
chain: MNMTQARLLVAAVVGLVAILLYASIHKIEEGHLAVYYRGGALLTSPSGPGYHIMLPFITTFRSVQTTLQTDEVKNVPCGTSGGVMIYIDRIEVVNMLAPYAVFDIVRNYTADYDKTLIFNKIHHELNQFCSAHTLQEVYIELFDQIDENLKQALQKDLNTMAPGLTIQAVRVTKPKIPEAIRRNFELMEAEKTKLLIAAQKQKVVEKEAETERKRAVIEAEKIAQVAKIRFQQKVMEKETEKRISEIEDAAFLAREKAKADAEYYAAHKYATSNKHKLTPEYLELKKYQAIASNSKIYFGSNIPSMFVDSSCALKYSDGRTGREDSLPPEEAREPSGESPIQNKENAG
For B1, the binding result is on record as “binds”.

B2: Slc25a42 (protein, UniProt Q8R0Y8 1-318)
chain: MGNGVQEGSVRLREDAEAVLAGAVSSKRDHRQVLSSLLSGALAGALAKTAVAPLDRTKIIFQVSSKRFSAKEAFRLLYFTYLNEGFLSLWRGNSATMVRVIPYAAIQFSAHEEYKRILGHYYGFRGEALPPWPRLLAGALAGTTAASLTYPLDLVRARMAVTPKEMYSNIFHVFIRISREEGLKTLYFGFTPTVLGVIPYAGLSFFTYESLKSLHREYSGRPQPYPFERMVFGACAGLIGQSASYPLDVVRRRMQTAGVTGHQHGSILSTLRSIVREEGAVRGLYKGLSMNWLKGPIAVGISFTTFDLMQILLRRLQS
As for B2, the binding entry was “binds”.

B3: Rmnd5B (Required for meiotic nuclear division 5 homolog B) (protein, UniProt Q91YQ7 1-393)
chain: MEQCACVERELDKVLHKFLTYGQHCEQSLEELLHSVGQLRAELASAALQGTPLSATLSLVMSQCCRKIRDTVQKLASDHKDIHSSVSRVGKAIDRNFDSEICGVVSDAVWDSREKQQQILQMAIVEHLYQQGMLSVAEELCQESTLNVDLDFKQPFLELNRILEALHEQDLGPALEWAVSHRQRLLELNSSLEFKLHRLHFIRLLAGGPEKQLEALSYARHFQPFARLHQREIQVMMGSLVYLRLGLEKSPYCHLLDNSHWAEICETFTRDACSLLGLSVESPLSVSFASGCVALPVLMNIKAVIEQRQCTGVWSHKDELPIEIELGMKCWYHSVFACPILRQQTSDSNPPIKLICGHVISRDALNKLINGGKLKCPYCPMEQNPADGKRIIF
For B3, the binding entry is on record as “binds”.

B4: Ampd3 (Adenosine Monophosphate Deaminase 3) (protein, UniProt O08739 1-766)
chain: MPRQFPKLNMSDLDEHVRLLAEKVFAKVLREEDSKDVMSLFTVPEDCPIGQKEAKERELQKELAEQKSVETAKRKKSFKMIRSQSLSLQMPTQQDWKGPPTASPAMSPATPLVPGATSKPGPAPYAMPEYQRVTISGDYCAGITVEDYEQAAKSLAKALMIREKYARLAYHRFPRTTAQYLAHQGESVPLEEGLPDFHPPPLPQEDPYCLDDAPPNLGYLVRMHGGVLFVYDNQTMLERQEPHSLPYPDLETYIVDMSHILALITDGPTKTYCHRRLNFLESKFSLHEMLNEMSEFKELKSNPHRDFYNVRKVDTHIHAAACMNQKHLLRFIKHTYQTEPDRTVAEKLGRKITLRQVFDSLHMDPYDLTVDSLDVHAGRQTFHRFDKFNSKYNPVGASELRDLYLKTENYLGGEYFARMVKEVARELEDSKYQYSEPRLSIYGRSPKEWSSLARWFIQHKVYSPNMRWIIQVPRIYDIFRSKKLLPNFGKMLENIFLPLFKATINPQDHRELHLFLKYVTGFDSVDDESKHSDHMFSDKSPSPDLWTSEQNPPYSYYLYYMYANIMVLNNLRRERGLSTFLFRPHCGEAGSITHLVSAFLTADNISHGLLLKKSPVLQYLYYLAQIPIAMSPLSNNSLFLEYSKNPLREFLHKGLHVSLSTDDPMQFHYTKEALMEEYAIAAQVWKLSTCDLCEIARNSVLQSGLSHQEKQKFLGQNYYKEGPEGNDIRKTNVAQIRMAFRYETLCNELSFLSDAMKSEEITALTK
For the molecule B4, the binding result is recorded as “binds”.

B5: Ddo (D-Aspartate Oxidase) (protein, UniProt Q922Z0 1-341)
chain: MDTVCIAVVGAGVIGLSTAACISQLVPGCTVTVISDRFTPDTTSNVAAGMLIPHTCADTPVPTQKRWFRETFEHLSEIAKSAEAADAGVHLVSGWQIFRSVPAEEVPFWADVVLGFRKMTEAELKRFPQYVFGQAFTTLKCETSAYLPWLERRIKGSGGLLLTRRIEDLWELQPSFDIVVNCSGLGSRRLVGDPMISPVRGQVLQARAPWVKHFIRDGGGLTYVYPGMSYVTLGGTRQKGDWNRSPDAELSREIFSRCCTLEPSLHRAYDIKEKVGLRPSRPGVRLQKEILVRGQQTLPVVHNYGHGSGGISVHWGSALEATRLVMECIHTLRTPASLSKL
For the molecule B5, the binding entry is on record as “binds”.

B6: Noa1 (protein, UniProt Q9JJG9 1-693)
chain: MLPARLACGLLCGLRRGPAPAAACYGPARWLLEGKCEVPIRQRASSLGRRVPPSSTATEDYAEGPDTEERFLFPEYVPERTPEEQVRELQELRELQQLQQEKERERLQQREERLQQKLRAGFRTLPVPEFPDASVPPSGIYCSGCGAELHCQHPGLPGYLPEEKFRDAAQAEGGPARTVCQRCWLLVHHGRALRLQVSRDQYLELVSAALRRPGPALVLYMVNLLDLPDALLPDLPKLVGPKQLIVLGNKVDLLPQDAPGYLKRLRKRLWDDCIRAGLVVAPGHQGPQYPAGDEPLEEIKNQNPSSRSRTVVKDVRLISAKTGYGVEEMISALQRSWRYRGDVYLVGTTNAGKSTLFNTLLESDYCTAKGSEAIDRATISPWPGTTLNLLKFPICNPTPYRMFKRQRRLQEDATKAEEDLSEEEQSQLNQLKKHGYIVGRVGRTFSYSREQDEVPFEFDADSLAFDMGSEPVVSVCKSTKQIELTPEDVKDAHWFYDTPGITKESCILNLLTEKEINTVLPTHSIIPRTFVLKPGMVLFLGGIARIDFLQGNQSAWFTVVASNFLPVHITSLDKADALYEKHAGHELLLVPMGGKERMAQFPPLVAEDITLKGGGKFEAVADIKFSSAGWVAVTPYSEGTLHLRGHTPEGTALTVHPPVLPYIVNVKGQRMKKSVAYKTKKPPSLVHNLKKHR
B6: the binding entry is recorded as “binds”.

B7: Parp12 (Poly[ADP-ribose] polymerase member 12) (protein, UniProt Q8BZ20 1-711)
chain: MAQAAVAVAEVTQLLCAAGGALELAELRRRLRTSLGTDALERLLRDCGRFVVASRAVVAVGAGREAAAAASERLVLAVSSLRLCRAHQGPKPGCTGLCAQLHLCKFLIYGNCKFLKTGKNCRNGHNLKTDHNLSVLRTHGVDHLTYTELCQLLLQNDPSLLPDICLHYNKGDGPFGSCSFQKQCIKLHICQYFLQGECKFGTSCKRSHEFTNSESLEQLERLGLSSDLVSRLLSTYRNAYDIKNKGSALSKVSPSPAGPQGSSERKDSSGPVSPGTPSQEESEQICLYHIRKSCSFQEKCHRVHFHLPYRWQFLDGGKWKDLDNMELIEEAYSNPSKDRIVYTESAAGFHFDNLDFNSMKFGNTLARRLSTASSVTKPPHFILTTDWIWYWMDEFGSWQEYGRQGSGHPVTTISSSDVERAYLAFCAPGADAQAATLKFQAGKHNYELHFKAFLQKNLVYGTIRKVCRRPKYVSPQDVQMKQSCNTKLHGPKSIPDYWDPAALPDLGFKKITLSSSSEEYQKVWNIFNRTLPFYFVQKIERIQNMGLWEVYQWQKCQMQKQNGGKEVDERQLFHGTSANFVDAICQQNFDWRVCGLHGTSYGKGSYFARDAAYSHHYSKSDTHSHMMFLARVLVGDFVRGSTSFVRPPAKEGQSNAFYDSCVNSMSDPTIFVVFEKHQVYPEYLIQYSTSSKPPASPSIFVALGNLFTSRQ
Turning to B7, the binding entry is on record as “binds”.

B8: Far1 (Fatty Co-acyl-CoA Reductase 1) (protein, UniProt Q922J9 1-515)
chain: MVSIPEYYEGKNILLTGATGFLGKVLLEKLLRSCPRVNSVYVLVRQKAGQTPQERVEEILSSKLFDRLRDENPDFREKIIAINSELTQPKLALSEEDKEIIIDSTNVIFHCAATVRFNENLRDAVQLNVIATRQLILLAQQMKNLEVFMHVSTAYAYCNRKHIDEVVYPPPVDPKKLIDSLEWMDDGLVNDITPKLIGDRPNTYIYTKALAEYVVQQEGAKLNVAIVRPSIVGASWKEPFPGWIDNFNGPSGLFIAAGKGILRTMRASNNALADLVPVDVVVNTSLAAAWYSGVNRPRNIMVYNCTTGSTNPFHWGEVEYHVISTFKRNPLEQAFRRPNVNLTSNHLLYHYWIAVSHKAPAFLYDIYLRMTGRSPRMMKTITRLHKAMVFLEYFTSNSWVWNTDNVNMLMNQLNPEDKKTFNIDVRQLHWAEYIENYCMGTKKYVLNEEMSGLPAARKHLNKLRNIRYGFNTILVILIWRIFIARSQMARNIWYFVVSLCYKFLSYFRASSTMRY
With B8, the binding result was “binds”.
